Results are given in words; binding and its absence hold for the method and conditions named. In cells and extracts the contact can be indirect. Some entries that bind do so weakly or less than the wild type.
T1: Forkhead box M1 (FOXM1) (human (endogenous in H1299)) (UniProt Q08050)
T1 sequence: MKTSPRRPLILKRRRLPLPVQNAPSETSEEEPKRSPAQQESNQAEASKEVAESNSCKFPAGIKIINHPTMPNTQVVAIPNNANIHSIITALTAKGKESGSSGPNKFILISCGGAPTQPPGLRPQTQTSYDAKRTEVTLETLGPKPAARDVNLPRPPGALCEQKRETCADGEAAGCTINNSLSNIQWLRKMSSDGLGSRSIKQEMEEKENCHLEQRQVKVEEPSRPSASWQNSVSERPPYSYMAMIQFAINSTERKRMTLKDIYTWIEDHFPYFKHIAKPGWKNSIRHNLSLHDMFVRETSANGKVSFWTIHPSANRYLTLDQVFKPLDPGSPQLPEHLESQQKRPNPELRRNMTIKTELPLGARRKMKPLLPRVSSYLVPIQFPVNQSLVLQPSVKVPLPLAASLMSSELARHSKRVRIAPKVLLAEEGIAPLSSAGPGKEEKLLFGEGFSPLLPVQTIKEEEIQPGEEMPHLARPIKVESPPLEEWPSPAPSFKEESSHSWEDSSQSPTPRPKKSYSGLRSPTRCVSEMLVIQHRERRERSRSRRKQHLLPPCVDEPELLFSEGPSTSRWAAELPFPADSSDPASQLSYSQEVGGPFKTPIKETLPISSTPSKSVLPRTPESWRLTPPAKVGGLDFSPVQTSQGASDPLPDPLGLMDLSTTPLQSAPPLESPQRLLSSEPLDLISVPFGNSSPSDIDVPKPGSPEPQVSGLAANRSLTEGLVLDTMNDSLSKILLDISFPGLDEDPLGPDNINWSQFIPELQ

Amino acid sequences for entries named in this document (tags omitted).
UniProt P17096: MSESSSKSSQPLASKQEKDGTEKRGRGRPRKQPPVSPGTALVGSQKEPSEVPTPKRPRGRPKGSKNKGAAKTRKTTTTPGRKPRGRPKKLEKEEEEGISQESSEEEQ


What was measured:
[1] = target: T1, Forkhead box M1 (FOXM1) (human (endogenous in H1299)); experiment: co-IP; endogenous proteins; cells lysed with cell X-Lysis buffer; IgG, FOXM1 or HMGA1 antibody with protein A/G agarose beads, overnight at 4 °C; eluted by boiling in SDS sample buffer, Western blot
[2] = target: high-mobility group AT-Hook 1 (HMGA1) (human (endogenous in H1299)) (UniProt P17096); experiment: as above

Row | binding [1] | binding [2] | Molecule
1 | binds |  | high-mobility group AT-Hook 1 (HMGA1) (from UniProt P17096 1-107)
2 |  | binds | Forkhead box M1 (FOXM1) (protein, UniProt Q08050 1-763) MKTSPRRPLILKRRRLPLPVQNAPSETSEEEPKRSPAQQESNQAEASKEVAESNSCKFPAGIKIINHPTMPNTQVVAIPNNANIHSIITALTAKGKESGSSGPNKFILISCGGAPTQPPGLRPQTQTSYDAKRTEVTLETLGPKPAARDVNLPRPPGALCEQKRETCADGEAAGCTINNSLSNIQWLRKMSSDGLGSRSIKQEMEEKENCHLEQRQVKVEEPSRPSASWQNSVSERPPYSYMAMIQFAINSTERKRMTLKDIYTWIEDHFPYFKHIAKPGWKNSIRHNLSLHDMFVRETSANGKVSFWTIHPSANRYLTLDQVFKPLDPGSPQLPEHLESQQKRPNPELRRNMTIKTELPLGARRKMKPLLPRVSSYLVPIQFPVNQSLVLQPSVKVPLPLAASLMSSELARHSKRVRIAPKVLLAEEGIAPLSSAGPGKEEKLLFGEGFSPLLPVQTIKEEEIQPGEEMPHLARPIKVESPPLEEWPSPAPSFKEESSHSWEDSSQSPTPRPKKSYSGLRSPTRCVSEMLVIQHRERRERSRSRRKQHLLPPCVDEPELLFSEGPSTSRWAAELPFPADSSDPASQLSYSQEVGGPFKTPIKETLPISSTPSKSVLPRTPESWRLTPPAKVGGLDFSPVQTSQGASDPLPDPLGLMDLSTTPLQSAPPLESPQRLLSSEPLDLISVPFGNSSPSDIDVPKPGSPEPQVSGLAANRSLTEGLVLDTMNDSLSKILLDISFPGLDEDPLGPDNINWSQFIPELQ

Source: paper PMC10223534
